# Source: paper PMC7261492, “ISCU interacts with NFU1, and ISCU[4Fe-4S] transfers its Fe-S cluster to NFU1 leading to the production of holo-NFU1” (Journal of structural biology, 2020)
# Results are given in words; binding and its absence hold for the method and conditions named. Binding can be weak; no strength is given.
# B1: human apo-NFU1 (protein, UniProt Q9UMS0 10-254)
# chain: GAAAVAAGLRRRFCHMLKNPYTIKKQPLHQFVQRPLFPLPAAFYHPVRYMFIQTQDTPNPNSLKFIPGKPVLETRTMDFPTPAAAFRSPLARQLFRIEGVKSVFFGPDFITVTKENEELDWNLLKPDIYATIMDFFASGLPLVTEETPSGEAGSEEDDEVVAMIKELLDTRIRPTVQEDGGDVIYKGFEDGIVQLKLQGSCTSCPSSIITLKNGIQNMLQFYIPEVEGVEQVMDDESDEKEANSP
# Target: ISCU(D39V) (human)
# Test: NMR titration; 2D 1H,15N TROSY-HSQC of [U-15N]-ISCU(D39V) before and after adding 0.5 or 1 molar equivalent of unlabelled apo-NFU1; peak intensity ratios at 0.5 equivalent; both purified
binder,measurement,value
B1,binding,binds
